According to PubChem BioAssay AID445 (National Center for Advancing Translational Sciences (NCATS), 2006):
The other results are listed elsewhere or left out. Further columns of the screen follow, without active or inactive calls. The list favours compounds with an active or inconclusive main result. Words in brackets tell the shape of the fitted curve; partial curves, single points and poor fits give uncertain potencies.

Assay: IkB Signaling
Details: ABC-DLBCL IkBa-CBG/CBR dual luciferase ratio (green luciferase fused to IkBa over red control in OCI-Ly3 lymphoma cells), 4 h; measured here: control luc red channel unless noted
Procedure, shortened: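 Luminescence ratio of IκBα-fused green versus native red beetle luciferase in OCI-Ly3 cells, 4 h post-doxycycline with compound; red signal alone, scaled from basal (0%) to zero light (-100%), flagged nonspecific or cytotoxic effects.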

Q: With `O=C(Nc1cccc(OCc2cc(=O)n3ccccc3n2)c1)Nc1cccc(C(F)(F)F)c1` as the molecule, how does the AC50 read?
A: 0.316 µM [falling, full curve]

Q: Which AC50 does the source give for `COc1cccc(NC(=O)Cn2c(=O)n(Cc3ccc(C(=O)NCc4ccc(C)cc4)cc3)c(=O)c3ccccc32)c1` here?
A: 0.316 µM [falling, single point]

Q: Which AC50 does the source give for `CCOC(=O)c1c(C)n(-c2ccccc2)c2ccc(OC(=O)c3c(F)cccc3F)cc12` here?
A: 10 µM [rising, partial curve]

Q: Which AC50 does the source give for `CCOc1ccc(Cn2c(CNS(=O)(=O)c3ccc(C(C)(C)C)cc3)nc3cccnc32)cc1` here?
A: 39.8 µM [falling, single point]

Q: With `CCOc1ccc(CNC(=O)C2=Cc3cccc(OC)c3OC2)cc1` as the molecule, how does the AC50 read?
A: 12.6 µM [falling, partial curve]

Q: With `O=C(Cc1nc2ccccc2s1)c1ccc(O)cc1O` as the molecule, how does the AC50 read?
A: 20 µM [falling, partial curve]

Q: For `COc1ccc(OC)c(CC2C(=O)Nc3ccc(Br)cc32)c1` (stereo unspecified), which AC50 is on record?
A: 31.6 µM [falling, partial curve]

Q: For `Cc1cc(F)ccc1S(=O)(=O)Nc1cc2c(C(=O)O)c(C)oc2c2ccccc12`, which AC50 is on record?
A: 5.01 µM [falling, full curve]

Q: With `Cc1cc(N2CCN(c3cc(Cl)ccc3C)CC2)n2nc(-c3ccccc3)nc2n1` as the molecule, how does the AC50 read?
A: 31.6 µM [falling, partial curve]

Q: Which AC50 does the source give for `O=C(NCc1ccco1)c1cnn2c1NC(c1ccc(Br)cc1)CC2C(F)(F)F` (stereo unspecified) here?
A: 10 µM [falling, partial curve, poor fit]

Q: With `N#Cc1ccc(NC(=O)C2Cc3ccccc3CN2S(=O)(=O)c2ccc(F)cc2)cc1` (stereo unspecified) as the molecule, how does the AC50 read?
A: 20 µM [falling, partial curve]

Q: With `O=C(Nc1ccccc1C(=O)OCc1cc(=O)n2ccsc2n1)c1ccccc1Cl` as the molecule, how does the AC50 read?
A: 12.6 µM [falling, partial curve]

Q: Which AC50 does the source give for `CCC(=O)N1CCc2cc(Br)cc(S(=O)(=O)N3CCN(c4cc(C)ccc4C)CC3)c21` here?
A: 5.01 µM [rising, full curve, poor fit]

Q: With `COc1cc(-c2cc3n(C)c(C)c(CCC(=O)NC4CCCCC4)c(=O)n3n2)cc(OC)c1OC` as the molecule, how does the AC50 read?
A: 15.8 µM [falling, partial curve]

Q: With `COc1ccc(Oc2nc3c(c(=O)n(C)c(=O)n3C)n2Cc2ccc(Cl)cc2Cl)cc1` as the molecule, how does the AC50 read?
A: 0.631 µM [falling, full curve, poor fit]

Q: With `CCOC12NC(=O)CC(=O)N1C(c1ccccc1)=CS2` (stereo unspecified) as the molecule, how does the AC50 read?
A: 12.6 µM [falling, partial curve]

Q: With `OCCN1CCN(c2ncnc3c2sc2nc(N4CCOCC4)c4c(c23)CCC4)CC1` as the molecule, how does the AC50 read?
A: 12.6 µM [falling, partial curve]

Q: With `CCOC(=O)c1cnc2ccc(OC)cc2c1Nc1cccc(C(C)=O)c1` as the molecule, how does the AC50 read?
A: 31.6 µM [falling, single point]

Q: For `CC1(C)C(=O)Nc2ccccc2N1C(=O)COc1ccc(S(=O)(=O)N2CCOCC2)cc1Cl`, which AC50 is on record?
A: 25.1 µM [falling, partial curve]

Q: With `O=C(CN1C(=O)C2(SCC(=O)N2c2ccc(F)c(F)c2)c2ccccc21)Nc1cccc(Cl)c1` (stereo unspecified) as the molecule, how does the AC50 read?
A: 20 µM [falling, partial curve]

Q: For `Cc1ccccc1OCC(=O)Nc1ccc2nc(SCC(=O)N3CCOCC3)sc2c1`, which AC50 is on record?
A: 5.01 µM [falling, partial curve]

Q: Which AC50 does the source give for `Cc1ccc2[nH]c(=O)c(CN(CCc3ccccc3)C(c3nnnn3Cc3ccco3)C(C)C)cc2c1` (stereo unspecified) here?
A: 7.94 µM [falling, partial curve]

Q: For `CCOc1cc(CNc2ccc(O)cc2)cc(Cl)c1OCc1ccccc1`, which AC50 is on record?
A: 20 µM [falling, partial curve]

Q: Which AC50 does the source give for `Cn1nc(-c2ccccc2F)c2cc(C(=O)N3CCN(c4ccccc4F)CC3)sc21` here?
A: 10 µM [falling, partial curve]

Q: With `CCOC(=O)c1c(C)[nH]c(C)c1S(=O)(=O)N1CCC(C(=O)NCc2ccc(OC)cc2)CC1` as the molecule, how does the AC50 read?
A: 5.01 µM [rising, partial curve]

Q: With `COC(=O)c1ccc2c(=O)n(CCCCCC(=O)N3CCN(c4cccc(C)c4C)CC3)c(=O)[nH]c2c1` as the molecule, how does the AC50 read?
A: 10 µM [falling, partial curve]

Q: For `COCCCNc1nc2c(-c3cccc(Br)c3)nnn2c2ccccc12`, which AC50 is on record?
A: 0.794 µM [falling, full curve]

Q: Which AC50 does the source give for `O=C(O)CCC(=O)Nc1ccc2ccccc2c1` here?
A: 0.794 µM [falling, full curve]

Q: With `O=C(CSc1nc2c([nH]c3ccccc32)c(=O)n1-c1ccc(F)cc1)Nc1ccc2c(c1)OCCO2` as the molecule, how does the AC50 read?
A: 1 µM [falling, full curve, poor fit]

Q: Which AC50 does the source give for `Cc1ccc(S(=O)(=O)N(CC(O)Cn2c3ccccc3c3ccccc32)c2cccc(C(=O)NCCO)c2)cc1` (stereo unspecified) here?
A: 10 µM [falling, partial curve]

Q: With `CCCCc1ccc(NC(=O)C2CCCO2)cc1` (stereo unspecified) as the molecule, how does the AC50 read?
A: 25.1 µM [falling, single point]

Q: For `COc1cc(OC)c(N(C)C(=O)c2cc3c(s2)-c2ccccc2OC3)cc1Cl`, which AC50 is on record?
A: 15.8 µM [falling, partial curve]

Q: Which AC50 does the source give for `COc1ccc2c(CNCc3cccs3)c(C(=O)O)n(Cc3ccccc3C)c2c1` here?
A: 0.398 µM [falling, partial curve]

Q: For `O=C(c1nnc(Cc2ccc(Cl)cc2)o1)N1CCc2ccccc2C1`, which AC50 is on record?
A: 12.6 µM [falling, partial curve]

Q: For `CC(=O)C1=C(C)NC(SCC(=O)c2ccc(F)cc2)=C(C#N)C1c1ccco1` (stereo unspecified), which AC50 is on record?
A: 25.1 µM [falling, partial curve]

Q: With `Cc1ccc(Sc2ccc(N3CCC(C(=O)Nc4ccc(Cl)cc4)CC3)nn2)cc1` as the molecule, how does the AC50 read?
A: 7.94 µM [falling, full curve, poor fit]

Q: Which AC50 does the source give for `CN1CCN(c2ncc3nc(-c4cn(C)c5ccccc45)c(=O)n(CCC#N)c3n2)CC1` here?
A: 3.98 µM [falling, partial curve]

Q: For `O=C(Nc1nc2c(F)cccc2s1)c1ccc2c(c1)OCCO2`, which AC50 is on record?
A: 3.16 µM [falling, partial curve]

Q: For `Cc1ccc(N2C(=O)C(CC(=O)Nc3ccc(F)cc3)N(Cc3ccc4c(c3)OCO4)C2=O)cc1` (stereo unspecified), which AC50 is on record?
A: 20 µM [falling, partial curve]

Q: With `Cc1ccc(CNC(=O)c2ccc3c(c2)NC(=O)C(CS(=O)(=O)Cc2cccc(F)c2)N3)cc1` (stereo unspecified) as the molecule, how does the AC50 read?
A: 12.6 µM [falling, partial curve, poor fit]

Q: For `Cn1cccc1Cc1nnc(SCC(=O)Nc2cccc(F)c2)n1CCc1ccccc1`, which AC50 is on record?
A: 20 µM [falling, partial curve]

Q: For `CCOC(=O)Cn1c(=O)oc2cc(S(=O)(=O)Nc3cc(Cl)ccc3OC)ccc21`, which AC50 is on record?
A: 10 µM [falling, partial curve]

Q: For `Cc1c(C(=O)O)oc2c1-c1nn(Cc3ccccc3Cl)cc1CC2`, which AC50 is on record?
A: 12.6 µM [falling, partial curve]

Q: Which AC50 does the source give for `CCc1ccccc1NC(=O)c1ccc(F)c(S(=O)(=O)N2CCN(c3ccccc3OC)CC2)c1` here?
A: 12.6 µM [falling, partial curve]

Q: For `Cc1oc2ncn(CC(C)C)c(=O)c2c1C(=O)Nc1ccc(Cl)cn1`, which AC50 is on record?
A: 39.8 µM [falling, single point]

Q: For `Cc1cccc(OCCn2nnc3sc4c(c3c2=O)CCCC4)c1`, which AC50 is on record?
A: 2.51 µM [rising, partial curve]

Q: With `COc1ccc(-n2c(-c3ccc(Cl)cc3)cc3c2CC(C)(C)CC3=O)c(OC)c1` as the molecule, how does the AC50 read?
A: 15.8 µM [falling, partial curve]

Q: For `CC1=C(C(=O)Nc2ccc(C)cc2C)C(c2ccc(C(C)C)cc2)n2nc(C(F)(F)F)nc2N1` (stereo unspecified), which AC50 is on record?
A: 39.8 µM [falling, single point]

Q: For `O=C1C2=C(Nc3ccccc3SC2c2c(F)cccc2Cl)c2ccccc21` (stereo unspecified), which AC50 is on record?
A: 7.94 µM [falling, full curve]

Q: With `O=C(NCCc1ccc(F)cc1)C(=O)NCC(c1cccs1)S(=O)(=O)c1cccs1` (stereo unspecified) as the molecule, how does the AC50 read?
A: 0.631 µM [rising, full curve, poor fit]

Q: For `CC(C)(C)OC(=O)N1CCC(c2c(C(=O)N3CCN(C4CCCCC4)CC3)cnn2-c2cccc(Cl)c2)CC1`, which AC50 is on record?
A: 25.1 µM [falling, single point]

Q: Which AC50 does the source give for `Cc1oc2ncn(C)c(=O)c2c1C(=O)N(C)c1ccccc1F` here?
A: 0.01 µM [rising, full curve, poor fit]

Q: With `O=C(COc1ccccc1)Nn1cnc2ccccc21` as the molecule, how does the AC50 read?
A: 1.26 µM [falling, full curve]

Q: Which AC50 does the source give for `CCCCNC(=O)c1sc2nc(C)cc(COC)c2c1-n1cccc1` here?
A: 12.6 µM [falling, partial curve]

Q: With `CCOC(=O)N1CCC(NC(=O)c2cnn(-c3cccc(C)c3)c2-n2cccc2)CC1` as the molecule, how does the AC50 read?
A: 15.8 µM [falling, partial curve]

Q: With `CC(=O)N1CCCc2cc(S(=O)(=O)N3CCC(C(=O)NC4CCCCC4)CC3)ccc21` as the molecule, how does the AC50 read?
A: 39.8 µM [rising, single point]

Q: Which AC50 does the source give for `Cc1ccc(C(=O)COC(=O)C(Cc2c[nH]c3ccccc23)NC(=O)c2ccc(Br)cc2)cc1` (stereo unspecified) here?
A: 25.1 µM [falling, single point]

Q: With `O=C(NCCCO)C(=O)Nc1c2c(nn1-c1ccc(F)cc1)CSC2` as the molecule, how does the AC50 read?
A: 3.98 µM [rising, single point] [measured here: IkB-luc green channel]

Q: With `Cc1nnc(N2CCC(C(=O)NCc3ccc(N(C)C)cc3)CC2)c2nn(-c3ccccc3)c(C)c12` as the molecule, how does the AC50 read?
A: 10 µM [falling, partial curve]

Q: Which AC50 does the source give for `COC(=O)C1=C(C)N(c2cccc(Cl)c2)C(=O)C1` here?
A: 3.16 µM [falling, full curve]

Q: For `COc1ccc(OC)c(CNC(=O)Cn2nc(C)c3c(C)n(-c4ccccc4)nc3c2=O)c1`, which AC50 is on record?
A: 25.1 µM [falling, single point]
